Values scatter widely in this assay.
B1: human tRNA-Pro; a variant is named by its letters at N, in order (parent)
chain: GGCTCGTTGGTCTAGNGGTATGATTCTCGCTTAGGGTGCGAGAGGTCCCGGGTTCNNATCCCGGACGAGCCC

Variants of: B1
Test: tRNA 5' processing efficiency (processed reads / all reads, maximum-likelihood estimate) (fraction); higher = more efficient 5' processing
Conditions: HEK293T; construct: CMV Pol-II promoter ((+)CMV library, decapped)

Which “tRNA 5' processing efficiency” value does the source give for GGCTCGTTGGTCTGAGTATGTGATTCTCGCTTAGGGTGCGAGAGGTCCCGGGTTCAAAGCCCGGACGAGCCC here?
Its value is 0.25.

For GGCTCGTTGGTCTGGGGGCATGATTCTCGCTTAGGGTGCGAGAGGTCCCGGGATCAAATCCCGGACGAGCCC, which “tRNA 5' processing efficiency” value is on record?
The value was 0.33.

With GGCTCGTTGGTCTCGGGTAATGATTCTCGCTTAGGGTGCGAGAGGTCCCGGGTTCAAAACCCGGACGAGCCC as the variant, how does the “tRNA 5' processing efficiency” value read?
The value was 0.17.

Which “tRNA 5' processing efficiency” value does the source give for GGCTCGTTGGTCTCGCGGTTTGATTCTCGCTTAGGGTGCGAGAGGTCCCGGGTTCAACTCCCGGACGAGCCC here?
Its value is 0.4.

Which “tRNA 5' processing efficiency” value does the source give for GGCTCGTTGGTCTCACGCTATGATTCTCGCTTAGGGTGCGAGAGGTCCCGGGTTCAAGTCCCGGACGAGCCC here?
Its value is 0.78.

For GGCTCGTTGGTCTGTGTGTATGATTCTCGCTTAGGGTGCGAGAGGTCCCGGATTCAAATCCCGGACGAGCCC, which “tRNA 5' processing efficiency” value is on record?
The value was 0.2.

With GGCTCGTTGGTCTCGTTGTATGATTCTCGCTTAGGGTGCGAGAGGTCCCGGGGTCAATTCCCGGACGAGCCC as the variant, how does the “tRNA 5' processing efficiency” value read?
The value was 0.33.

For GGCTCGTTGGTCTGGGGGTATGATTCTCGCTTAGGGTGCGAGAGGTCCCGGGTCTAAATCCCGGACGAGCCC, which “tRNA 5' processing efficiency” value is on record?
Its value is 0.25.

Which “tRNA 5' processing efficiency” value does the source give for GGCTCGTTGGTCTGGGCGTATGATTCTCGCTTAGGGTGCGAGAGGTCCCGGGTGAAAATCCCGGACGAGCCC here?
Its value is 0.25.

Which “tRNA 5' processing efficiency” value does the source give for GGCTCGTTGGTCTCGGCGTATGATTCTCGCTTAGGGTGCGAGAGGTCCCGGGTTCAAGTCCCGGACGAGCCC here?
The value was 0.6.

For GGCTCGTTGGTCTGGGGCTATGATTCTCGCTTAGGGTGCGAGAGGTCCCGGGTACAATTCCCGGACGAGCCC, which “tRNA 5' processing efficiency” value is on record?
The value was 0.05.

With GGCTCGTTGGTCTCGGGGTCTGATTCTCGCTTAGGGTGCGAGAGGTCCCGGGGTCAATTCCCGGACGAGCCC as the variant, how does the “tRNA 5' processing efficiency” value read?
Its value is 0.25.

With GGCTCGTTGGTCTGGGGGTATGATTCTCGCTTAGGGTGCGAGAGGTCCCGGGTTAAAATCCCGGACGAGCCC as the variant, how does the “tRNA 5' processing efficiency” value read?
Its value is 0.25.

With GGCTCGTTGGTCTGGGGGTATGATTCTCGCTTAGGGTGCGAGAGGTCCCGGGTTTAAATCCCGGACGAGCCC as the variant, how does the “tRNA 5' processing efficiency” value read?
Its value is 0.33.

With GGCTCGTTGGTCTGGAGGTATGATTCTCGCTTAGGGTGCGAGAGGTCCCGGGGTTAAATCCCGGACGAGCCC as the variant, how does the “tRNA 5' processing efficiency” value read?
The value was 0.5.

Which “tRNA 5' processing efficiency” value does the source give for GGCTCGTTGGTCTGGGGCGATGATTCTCGCTTAGGGTGCGAGAGGTCCCGGGTCCAAATCCCGGACGAGCCC here?
Its value is 0.25.

For GGCTCGTTGGTCTGGGTGTCTGATTCTCGCTTAGGGTGCGAGAAGTCCCGGGTTGAAAGCCCGGACGAGCCC, which “tRNA 5' processing efficiency” value is on record?
Its value is 0.25.

Which “tRNA 5' processing efficiency” value does the source give for GGCTCGTTGGTCTGGAGTTATGATTCTCGCTTAGGGTGCGAGAGGTCCCGGGTTCAAATCCCGGACGAGCCC here?
The value was 0.5.

Which “tRNA 5' processing efficiency” value does the source give for GGCTCGTTGGTCTTCGGGTATGATTCTCGCTTAGGGTGCGAGAGGTCCCGGGTTCAAATCCCGGACGAGCCC here?
Its value is 0.33.

With GGCTCGTTGGTCTGTGGGTTTGATTCTCGCTTAGGGTGCGAGAGGTCCCGGGTACAAATCCCGGACGAGCCC as the variant, how does the “tRNA 5' processing efficiency” value read?
Its value is 0.25.

For GGCTCGTTGGTCTGGGGGTGTGATTCTCGCTTAGGGTGCGAGAGGTCCCGGGGTAAACTCCCGGACGAGCCC, which “tRNA 5' processing efficiency” value is on record?
Its value is 0.4.

Which “tRNA 5' processing efficiency” value does the source give for GGCTCGTTGGTCTGGGGGTGTGATTCTCGCTTAGGGTGCGAGAGGTCCCGGGTTCAAGTCCCGGACGAGCCC here?
The value was 0.25.

Which “tRNA 5' processing efficiency” value does the source give for GGCTCGTTGGTCTGTGGGTGTGATTCTCGCTTAGGGTGCGAGAGGTCCCGGGTCCAAATCCCGGACGAGCCC here?
The value was 0.25.

With GGCTCGTTGGTCTGGAGGTCTGATTCTCGCTTAGGGTGCGAGAGGTCCCGGGTTCAAATCCCGGACGAGCCC as the variant, how does the “tRNA 5' processing efficiency” value read?
Its value is 0.29.

Which “tRNA 5' processing efficiency” value does the source give for GGCTCGTTGGTCTCGGTGTATGATTCTCGCTTAGGGTGCGAGAGGTCCCGGGTATAAATCCCGGACGAGCCC here?
Its value is 0.25.

For GGCTCGTTGGTCTCGAAGTATGATTCTCGCTTAGGGTGCGAGAGGTCCCGGGTTAAAATCCCGGACGAGCCC, which “tRNA 5' processing efficiency” value is on record?
Its value is 0.18.

For GGCTCGTTGGTCTGGTGGTTTGATTCTCGCTTAGGGTGCGAGAGGTCCCGGGTTCAAATCCCGGACGAGCCC, which “tRNA 5' processing efficiency” value is on record?
The value was 0.43.

Which “tRNA 5' processing efficiency” value does the source give for GGCTCGTTGGTCTGGGGGTATGATTCTCGCTTAGGGTGCGAGAGGTCCCGGGGTCAAACCCCGGACGAGCCC here?
The value was 0.11.

Variants of: B1
Test: tRNA 3' processing efficiency (processed reads / all reads, maximum-likelihood estimate) (fraction); higher = more efficient 3' processing
Conditions: HEK293T; construct: no Pol-II promoter ((-)CMV library)

Which “tRNA 3' processing efficiency” value does the source give for GGCTCGTTGGTCTAGTGGTATGATTCTCGCTTAGGGTGCGAGAGGTCCCGGGTTCTTACCCCGGACGAGCCC here?
Its value is 0.2.

With GGCTCGTTGGTCTAGTGGAGTGATTCTCGCTTAGGGTGCGAGAGGTCCCGGGTTCTTATCCCGGACGAGCCC as the variant, how does the “tRNA 3' processing efficiency” value read?
The value was 0.14.

Which “tRNA 3' processing efficiency” value does the source give for GGCTCGTTTGTCTAGGGGTATGATTCTCGCTTAGGGTGCGAGAGGTCCCGGGTTCTTACCCCGGACGAGCCC here?
Its value is 0.2.

Which “tRNA 3' processing efficiency” value does the source give for GGCTCGTTGGTCTAAGCGTCTGATTCTCGCTTAGGGTGCGAGAGGTCCCGGGTTCTTATCCCGGACGAGCCC here?
The value was 0.33.

Which “tRNA 3' processing efficiency” value does the source give for GGCTCGTCGGTCTAGTGGTATGATTCTCGCTTAGGGTGCGAGAGGTCCCGGGTTCTTATCCCGGACGAGCCC here?
Its value is 0.2.

For GGCTCGTTGGTCTCGCTGTATGATTCTCGCTTAGGGTGCGAGAGGTCCCGGGTTCTTATCCCGGACGAGCCC, which “tRNA 3' processing efficiency” value is on record?
The value was 0.17.

Which “tRNA 3' processing efficiency” value does the source give for GGCTCGTTGGTCTAGTGATATGATTCTCGCTTAGGGTGCGAGAGGTCCCGGGTTCTTTTCCCGGACGAGCCC here?
Its value is 0.25.

With GGCTCGTTGGTCTAGGGGGATGATTCTCGCTTAGGGTGCGAGAGGTCCCGGGTTCTTAGCCCGGACGAGCCC as the variant, how does the “tRNA 3' processing efficiency” value read?
The value was 0.25.

With GGTTCGTTGGTCTCGCGGTATGATTCTCGCTTAGGGTGCGAGAGGTCCCGGGTTCTTATCCCGGACGAGCCC as the variant, how does the “tRNA 3' processing efficiency” value read?
Its value is 0.25.

Reference: the supplement of paper PMC6445147
